Results taken from the supplement of paper PMC3334620.
Whole data set: some 33,000 sequences, median “E-score (-0.5 to 0.5)” near -0.0014, cut for the highest 2% near 0.25. Some of the results follow.

Each sequence was assayed against T1, Cad1 (UniProt P24813) (assay: PBM E-score (8-mer binding enrichment) (E-score (-0.5 to 0.5)); higher = stronger / more preferred TF binding). Details: protein concentration: 100 nM; construct: GST-full length.
T1 sequence: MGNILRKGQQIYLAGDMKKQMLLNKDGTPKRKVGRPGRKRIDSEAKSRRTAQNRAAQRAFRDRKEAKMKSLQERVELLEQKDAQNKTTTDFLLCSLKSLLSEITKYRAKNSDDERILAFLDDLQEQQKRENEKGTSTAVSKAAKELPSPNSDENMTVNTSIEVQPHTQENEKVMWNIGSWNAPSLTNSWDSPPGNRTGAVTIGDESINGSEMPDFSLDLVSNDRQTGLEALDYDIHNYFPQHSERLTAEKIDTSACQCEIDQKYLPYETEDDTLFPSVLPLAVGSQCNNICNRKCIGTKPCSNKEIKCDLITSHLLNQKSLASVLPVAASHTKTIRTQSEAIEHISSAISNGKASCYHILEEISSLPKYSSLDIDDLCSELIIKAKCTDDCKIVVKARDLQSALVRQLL
Experimental: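 Universal 'all 10-mer' protein binding microarrays (Agilent AMADID 015681) probed with GST-tagged S. cerevisiae TFs (full-length or DBD) made by in vitro transcription/translation (PURExpress), about 100-200 nM. Bound TF was detected with fluorescent anti-GST. Each ungapped 8-mer (which stands for itself and its reverse complement) is scored by the PBM enrichment score (E-score), a modified Wilcoxon-Mann-Whitney statistic from -0.5 to +0.5, computed with the Universal PBM Analysis Suite. Scale: above 0.35 generally sequence-specific binding.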

Sequence | PBM E-score
ACCCAGCT | -0.184
AGTCATGA | 0.16
CTCCGTAC | -0.0404
CGATAAAG | 0.0305
ACACGCTA | -0.056
GCGACTTA | -0.04
ATGGTAGG | -0.112
ATTGTGCC | -0.175
AGTGGTAG | 0.00926
CAAAGTCG | -0.00415
GCGCGAAC | -0.0187
CTTAGGGC | -0.0822
CAGTACGA | 0.0748
CTAGATTA | 0.226
ACCGAAAC | 0.0463
TCCAACGA | -0.0591
TAGTTCGA | 0.0531
AACGGGAT | -0.113
CTACGCCC | -0.203
CTATAAAC | 0.0193
CGTTTTAC | -0.0161
CCACCAGG | -0.221

Sequence | PBM E-score
AGTAGGGC | 0.0572
ACCCTTTG | -0.247
ATTTGACG | 0.156
GAACCCAA | 0.00927
ATCAGATG | -0.109
GCAACTCC | -0.137
CCTCCCTC | -0.0476
CGTGATAC | -0.0812
AATGCGGC | 0.114
GGATCTCA | -0.182
GTATGGGA | -0.253
ACACTCGC | 0.123
CGCTAAGC | 0.058
AGTCATTA | -0.0112
AGGACTGA | -0.114
ACAGAGAC | -0.106
GAGTTGGA | -0.0262
GACATCCA | -0.0881
GCCAATCA | -0.0666
GAGGCAGC | -0.0807
CGGTGGTA | -0.0272
GTAGGTCA | -0.155

Sequence | PBM E-score
ACCTGCAC | -0.139
CATATCGC | 0.0925
GGGGGAAC | -0.314
AAACCACG | -0.101
CCCGAGAC | -0.0512
GAAATTGC | 0.0698
GGTTACAC | -0.073
CTGGAGGA | -0.121
CTTGAATC | -0.017
CCGACGAG | -0.0724
CGGGGCAG | -0.102
CAAGATCC | 0.0341
TCATAGCA | -0.00424
GAGAACTA | 0.103
CACCCAAG | -0.094
CGTGCTGA | 0.222
AGCCTTAC | -0.167
TACCCCCA | -0.289
CAGCATCC | -0.185
GATCCTGA | 0.034
CCGAGGGC | -0.00227
AACCTAGG | -0.0383

Sequence | PBM E-score
GCCGGGAA | -0.144
AAACGACG | 0.113
AATAGTGT | 0.128
ACAAAACG | 0.0535
CGGTCACA | 0.00337
GAGGTAGC | -0.166
AGCAGACC | 0.0505
AAGTCGTG | 0.0348
GACTAACA | 0.218
CCTCTGTA | -0.153
ACCGGTCC | -0.312
CCAGCAAG | -0.167
GCCAACAA | -0.0504
GGAGGGGA | -0.0377
CCTATGCC | -0.218
CACGGCCA | -0.0897
TGCGGTAA | 0.141
CTGAGTCC | 0.0301
AGATGTGG | -0.133
AGCATGAC | 0.027
CTTGTCAC | -0.0806
CGTGGGTA | -0.149

A portion of the results above, for reference:
Sequence | PBM E-score
GCCAACAA | -0.0504
GGAGGGGA | -0.0377
CCTATGCC | -0.218
CACGGCCA | -0.0897
TGCGGTAA | 0.141
CTGAGTCC | 0.0301
AGATGTGG | -0.133

(cont.)

Sequence | PBM E-score
GAAAGGGC | -0.112
AAGACAAG | 0.0865
AATCGATC | 0.215
GCAAGTAC | -0.0548
GCAAGGCC | 0.0338
CGCTAACG | 0.233
TTCTCCAA | -0.122
CCGAGCGC | 0.19
AATTGTTC | 0.212
TAGTCTAA | -0.103
ATATCCAA | 0.184
CCTAAACA | -0.141
ACACGTAA | -0.0157
CTACTACC | -0.0481
TGCCTTAA | -0.0884
GGTTAAAA | 0.00126
CTCACGCC | -0.0984
GTACAGAA | 0.066
GTGATGTA | 0.0906
GGGAGACC | -0.355
AACCCGCC | 0.0998
ATATAGGG | -0.132
